Assay results taken from patent US20080280308A1.
Results are given in words; binding and its absence hold for the method and conditions named. Some binding calls cover weakened binding; strength is not graded here.

T1: human thrombin receptor (PAR1) (human) (UniProt P25116)
T1 sequence (looked up): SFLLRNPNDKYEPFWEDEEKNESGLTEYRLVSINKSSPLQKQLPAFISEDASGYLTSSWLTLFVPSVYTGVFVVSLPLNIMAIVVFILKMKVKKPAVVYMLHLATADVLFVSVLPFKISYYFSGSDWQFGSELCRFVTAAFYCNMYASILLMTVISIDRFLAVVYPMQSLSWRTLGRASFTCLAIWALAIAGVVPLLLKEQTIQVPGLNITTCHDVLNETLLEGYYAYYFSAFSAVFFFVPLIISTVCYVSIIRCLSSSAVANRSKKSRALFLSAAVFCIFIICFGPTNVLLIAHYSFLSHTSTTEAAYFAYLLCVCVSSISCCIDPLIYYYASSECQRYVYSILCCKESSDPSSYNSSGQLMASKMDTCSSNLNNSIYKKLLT


target: T1, human thrombin receptor (PAR1) (human); assay: panning, G12 library, CHO PAR1

Binder | binding
LKEHLMERMLQ | binds
LQETMKDQSLQ | binds
WQHKLSEVMLQ | binds

Now from value to binder:

binding | Binder
binds | PQVNLKSIMRQ
binds | LLGMLEPLMEQ

target: T1, human thrombin receptor (PAR1) (human); assay: panning, G11 library, CHO EXPRESSED PAR1

Binder | binding
LQIYLKGYNLV | binds
MKLKLKEDNLV [R2-18 …] | binds
LVIKPKEFNLV | binds
CSLKLKAYNLV [C5-12 …] | binds
LQLDLKESNMV | binds
LQQKLKEYSLV [C7-14 …] | binds
LQMNHNEYNLV [C4-16 …] | binds
LQLKRGEYILV [C4-5 …] | binds
PQLNLNAYNLV [C7-3 …] | binds
LQLNRKNYNLV | binds
LHLNLKEYNLV [C7-13 …] | binds
LQLNRNEYYLV [C4-19 …] | binds
VQVKLKEYNLV | binds
LQLRYKCYNLV [R2-21 …] | binds
LQLRVKEYKRG | binds
HQLDLLEYNLG [R2-20 …] | binds
MQLNLKEYNLV | binds

The remaining lines, values ahead:

binding | Binder
binds | WRLSLKVYNLV
binds | LQFNLNDCNLV [R2-16 …]
binds | LQYNLKESFVV
binds | IQLNLKNYNIV
binds | LRLNGKELNLV [C5-10 …]
binds | QLLNQYVYNLV
binds | QRLNVGEYNLV [C7-10 …]
binds | LQLNVKEYNLV [R3-44 …]
binds | LQQSLIEYNLL [R3-37 …]
binds | LQRNKKQYNLG [R2-17 …]
binds | LQRDHVEYKLF

target: T1, human thrombin receptor (PAR1) (human); assay: panning, G11 library, SF9 EXPRESSED PAR1

Binder | binding
LKRKVKEYNLG | binds
LFLNLKEYSLV | binds
LKRKLKESNMG | binds
LPLNPKEYSLV | binds
LRLNDIEALLV | binds
LQKNLKEYNMV [S3-6 …] | binds
MKLNVSESNLV [S1-13 …] | binds
LKRYLKESNLV [S3-10 …] | binds
LQLKHKENNLM [S2-26 …] | binds
LELNLKVYNLF [S1-23 …] | binds
MNLTLKECNLV [S3-15 …] | binds
LPLNLIDFSLM | binds
LQMYLRGYNLV [S3-8 …] | binds

Further lines, results first:

binding | Binder
binds | LPRNLKEYDLG
binds | LHLNMAEVSLV [S2-30 …]
binds | LQVNLEEYHLV [S2-36 …]
binds | LQLNLKVYNLV [S1-18 …]
binds | LVLNRIEYNLL
binds | LELNLKVYNLV

target: T1, human thrombin receptor (PAR1) (human); assay: panning, G11 library, Recomb/Reconst PAR1

Binder | binding
LQIYLKGYNLV | binds
VHVKLKEYNLV [R3-38 …] | binds
MKLKLKEDNLV [R2-18 …] | binds
SAKELDQYNLG | binds
VQVKLKEYNLV | binds
LQLRYKCYNLV [R2-21 …] | binds
LQLRVKEYKRG | binds
HQLDLLEYNLG [R2-20 …] | binds
LYLDLKEYCLF | binds

The remaining lines, values ahead:

binding | Binder
binds | LQFNLNDCNLV [R2-16 …]
binds | LQRNKNQYNLG
binds | LQLNVKEYNLV [R3-44 …]
binds | LQQSLIEYNLL [R3-37 …]
binds | LQRNKKQYNLG [R2-17 …]
binds | LRLDFSEKQLV

target: T1, human thrombin receptor (PAR1) (human); assay: panning, LacI-displayed Gq library, Sf9 PAR1 membranes

Binder | binding
LQKNLKEYNMV [S3-6 …] | binds
MKLNVSESNLV [S1-13 …] | binds
LKRYLKESNLV [S3-10 …] | binds
LQLKHKENNLM [S2-26 …] | binds
LELNLKVYNLF [S1-23 …] | binds
MNLTLKECNLV [S3-15 …] | binds
LQMYLRGYNLV [S3-8 …] | binds

The remaining lines, values ahead:

binding | Binder
binds | LHLNMAEVSLV [S2-30 …]
binds | LQVNLEEYHLV [S2-36 …]
binds | LQLNLKVYNLV [S1-18 …]

target: T1, human thrombin receptor (PAR1) (human); assay: panning, LacI-displayed Gq library, CHO PAR1 membranes

Binder | binding
CSLKLKAYNLV [C5-12 …] | binds
LQQKLKEYSLV [C7-14 …] | binds
LQMNHNEYNLV [C4-16 …] | binds
LQLKRGEYILV [C4-5 …] | binds
PQLNLNAYNLV [C7-3 …] | binds
LHLNLKEYNLV [C7-13 …] | binds
LQLNRNEYYLV [C4-19 …] | binds

Next, values leading:

binding | Binder
binds | LRLNGKELNLV [C5-10 …]
binds | QRLNVGEYNLV [C7-10 …]

target: T1, human thrombin receptor (PAR1) (human); assay: panning, LacI-displayed Gq library, purified PAR1 in lipid vesicles

Binder | binding
VHVKLKEYNLV [R3-38 …] | binds
MKLKLKEDNLV [R2-18 …] | binds
LQLRYKCYNLV [R2-21 …] | binds
HQLDLLEYNLG [R2-20 …] | binds
LRIYLKGYNLV [R3-46 …] | binds

Continued, values first:

binding | Binder
binds | LQFNLNDCNLV [R2-16 …]
binds | LQLNVKEYNLV [R3-44 …]
binds | LQQSLIEYNLL [R3-37 …]
binds | LQRNKKQYNLG [R2-17 …]
